Data as given in PMC3973678.

Target: PU.1 (wild type, BMDM nuclear extract) (mouse) (UniProt P17433)
Assay: EMSA, supershift
Conditions: BMDM nuclear extract, day 1 and 7; 5 ug nuclear extract, 6% native acrylamide gel, 0.5X TBE, chemiluminescent detection; binding buffer, pH and temperature not given; protein in an extract; label: 5' biotin

Does “CGCGCAGTGGGGGCTGCGGGAAGGCGGGGAGAAGAAAGGCAGGGGGCGGGGCCTGGCGGCGGAGCCCCGCGCGCCG (double strand) [KLF4 promoter 76 bp oligo (-118/-113 PU.1 element)]” bind?
Result: binds

Construct, isoform or probe ends are uncertain for at least one entry. Where cells or extracts were used, other partners may take part.
